The results in this text go back to patent US20200360479A1.

Protein sequences, listed by entry. Tags and fused reporters are not part of them. Lines headed by an entry give the natural chain unless they say otherwise; changes in a name come on top.
UniProt P78556: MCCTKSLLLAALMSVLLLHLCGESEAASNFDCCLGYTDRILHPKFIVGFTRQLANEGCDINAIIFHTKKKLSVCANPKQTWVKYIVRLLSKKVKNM

For experiment [1], the target named is T1, CCR6 (UniProt P51684).
T1 sequence (looked up): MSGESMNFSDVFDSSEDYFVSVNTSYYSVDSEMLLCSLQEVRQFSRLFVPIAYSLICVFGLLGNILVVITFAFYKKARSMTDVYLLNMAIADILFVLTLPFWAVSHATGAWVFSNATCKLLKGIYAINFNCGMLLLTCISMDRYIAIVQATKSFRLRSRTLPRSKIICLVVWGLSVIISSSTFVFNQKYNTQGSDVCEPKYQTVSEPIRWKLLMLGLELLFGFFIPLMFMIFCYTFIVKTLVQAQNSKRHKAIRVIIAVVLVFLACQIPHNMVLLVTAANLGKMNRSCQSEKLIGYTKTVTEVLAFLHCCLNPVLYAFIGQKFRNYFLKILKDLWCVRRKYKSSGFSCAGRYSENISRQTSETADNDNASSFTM
In words: radioligand displacement on CCR6+ COS-7 cells.

Experiment [2] concerns the target T1, CCR6. Put plainly: inferred from chemotaxis inhibition assays.
Experiment [3] addresses T1, CCR6. Put plainly: inferred from calcium flux on CCR6+ Jurkat cells. (In general: Calcium flux is commonly read through the fluorescence of an indicator in the cells.)

These are yes or no findings as the source states them, for the method shown. Some results given as binding are weak or reduced against the parent protein; the word gives no strength.

For “CCL20 WT (from UniProt P78556 27-96) (ligand)”, in the experiment with CCR6 [1], the binding result was “binds”.

Turning to “CCL20 S64C locked dimer (from UniProt P78556 27-96) (ligand)”, the binding entry with CCR6 [2], with CCR6 [1] and with CCR6 [3] was “binds” throughout.
